These are yes or no findings as the source states them, for the method shown. In cells and extracts the contact can be indirect. Some entries that bind do so weakly or less than the wild type. For some of these results: Sequences can lack the tags named with a protein.
What was measured:
[1] = target: T1, mCherry-tagged SLC25A10 S3 domain (amino acids 191-287) (UniProt Q9UBX3); assay: co-IP; HEK 293T cells co-transfected with HA-p62 and mCherry-tagged full-length or truncated SLC25A10, immunoprecipitated
T1 sequence: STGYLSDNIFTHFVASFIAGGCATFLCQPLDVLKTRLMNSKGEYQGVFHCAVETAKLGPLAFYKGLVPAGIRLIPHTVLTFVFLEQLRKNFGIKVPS

Flag-tagged SLC25A10 = target: T2, Flag-tagged SLC25A10 (UniProt Q9UBX3); assay: co-IP; HEK293T cells overexpressing Flag-tagged SLC25A10 and Myc-tagged p62; immunoprecipitates analysed by Western blot with anti-Myc and anti-Flag antibodies
T2 sequence: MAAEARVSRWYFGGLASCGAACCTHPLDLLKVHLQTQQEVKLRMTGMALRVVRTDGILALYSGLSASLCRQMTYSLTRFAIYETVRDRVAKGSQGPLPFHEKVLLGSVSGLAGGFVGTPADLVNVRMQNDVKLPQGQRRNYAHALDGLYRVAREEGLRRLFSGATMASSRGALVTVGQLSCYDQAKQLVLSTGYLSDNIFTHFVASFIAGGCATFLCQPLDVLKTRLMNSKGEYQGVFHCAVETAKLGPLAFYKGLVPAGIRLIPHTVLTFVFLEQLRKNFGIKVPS

[2] = target: T3, SLC25A10 (mitochondrial dicarboxylate carrier) (human (endogenous in PC-3 and 22RV1)) (UniProt Q9UBX3); assay: co-IP; PC-3 and 22RV1 lysates (50 mM Tris-HCl, 150 mM NaCl, 1% NP-40, 1 mM EDTA); IP with anti-SLC25A10 antibody or, reciprocally, p62 antibody (control IgG), protein A/G agarose, 4 °C overnight; Western blot
T3 sequence: T2 sequence

[3] = target: SQSTM1 (p62), endogenous (human (endogenous in PC-3 and 22RV1)) (UniProt Q13501); assay: as above

HA-tagged p62 (from UniProt Q13501 1-440)
binding [1]: binds

Myc-tagged p62 (from UniProt Q13501 1-440)
binding (Flag-tagged SLC25A10): binds

SQSTM1 (p62), endogenous (from UniProt Q13501 1-440)
binding [2]: binds

B1: SLC25A10 (mitochondrial dicarboxylate carrier) (protein, UniProt Q9UBX3 1-287)
chain: T2 sequence
binding [3]: binds
